In article PMC11910144:
No constants are given. Whether binding was seen depends on the method and setting. In cells and extracts the contact can be indirect. Some binding calls cover weakened binding; strength is not graded here.

Chains of the proteins cited; added tags and fusions are not shown.
UniProt P67809: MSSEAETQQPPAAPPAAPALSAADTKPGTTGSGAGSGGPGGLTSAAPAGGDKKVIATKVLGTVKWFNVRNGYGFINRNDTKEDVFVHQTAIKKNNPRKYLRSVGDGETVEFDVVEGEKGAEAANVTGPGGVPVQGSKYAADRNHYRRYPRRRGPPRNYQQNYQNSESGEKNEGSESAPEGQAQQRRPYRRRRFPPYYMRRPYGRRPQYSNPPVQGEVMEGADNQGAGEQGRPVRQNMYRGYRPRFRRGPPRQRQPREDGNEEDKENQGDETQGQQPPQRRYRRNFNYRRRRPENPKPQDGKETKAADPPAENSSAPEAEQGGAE
UniProt Q9Y4L5: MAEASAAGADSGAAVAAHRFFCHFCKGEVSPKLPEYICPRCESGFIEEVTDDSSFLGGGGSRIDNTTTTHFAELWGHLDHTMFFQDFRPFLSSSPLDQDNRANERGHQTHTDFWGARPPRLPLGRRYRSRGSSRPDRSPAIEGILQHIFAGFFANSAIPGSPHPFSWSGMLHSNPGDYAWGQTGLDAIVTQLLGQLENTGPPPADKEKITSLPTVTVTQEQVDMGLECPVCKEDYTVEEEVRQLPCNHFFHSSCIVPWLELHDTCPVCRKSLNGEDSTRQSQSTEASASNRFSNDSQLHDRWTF
UniProt P60842: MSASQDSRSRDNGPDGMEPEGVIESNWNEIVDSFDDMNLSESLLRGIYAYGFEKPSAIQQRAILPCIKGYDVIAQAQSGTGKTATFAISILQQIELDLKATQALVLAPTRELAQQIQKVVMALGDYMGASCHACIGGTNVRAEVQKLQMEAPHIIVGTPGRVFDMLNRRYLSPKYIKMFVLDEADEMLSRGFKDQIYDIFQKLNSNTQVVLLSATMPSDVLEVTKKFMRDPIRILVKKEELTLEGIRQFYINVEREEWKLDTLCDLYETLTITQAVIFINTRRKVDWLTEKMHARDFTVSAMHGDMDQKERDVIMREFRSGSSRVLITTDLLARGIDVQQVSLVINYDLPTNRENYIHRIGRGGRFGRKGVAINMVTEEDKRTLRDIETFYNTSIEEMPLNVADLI
UniProt Q02127: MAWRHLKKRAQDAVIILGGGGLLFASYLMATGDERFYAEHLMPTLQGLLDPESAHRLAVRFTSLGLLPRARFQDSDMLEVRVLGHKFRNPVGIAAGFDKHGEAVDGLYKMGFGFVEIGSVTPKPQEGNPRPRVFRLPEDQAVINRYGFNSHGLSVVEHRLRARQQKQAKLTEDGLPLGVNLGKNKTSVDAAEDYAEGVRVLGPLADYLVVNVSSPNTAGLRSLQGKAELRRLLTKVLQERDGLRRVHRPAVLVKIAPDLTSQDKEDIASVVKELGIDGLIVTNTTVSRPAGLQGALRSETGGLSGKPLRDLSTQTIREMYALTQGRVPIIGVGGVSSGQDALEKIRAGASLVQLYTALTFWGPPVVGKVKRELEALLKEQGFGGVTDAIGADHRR

Experiments:
[1] = molecular target: YBX1, endogenous (human (endogenous in Huh7 and HepG2)) (UniProt P67809); assay: co-IP; endogenous proteins in Huh7 cells, with or without RNase (10 µg/mL, 37°C, 10 min), IgG as a control, western blot
3FLAG-RNF115 = 3FLAG-RNF115 (UniProt Q9Y4L5); assay: co-IP; exogenous (transfected, tagged) proteins; antibody cross-linked to protein A/G, lysate incubated overnight at 4°C, western blot; bait and cell line not stated
[2] = molecular target: Ring Finger Protein 115 (RNF115), endogenous (human (endogenous in the paper's human cell lines; line not stated for this panel)) (UniProt Q9Y4L5); assay: co-IP; endogenous proteins; 10 µg antibody cross-linked to protein A/G, 1000 µg total protein in IP lysis buffer, overnight at 4°C, western blot; bait and cell line not stated

Eukaryotic Translation Initiation Factor 4A1 (EIF4A1), endogenous (from UniProt P60842 1-406)
binding [1]: binds

His-DHODH (from UniProt Q02127 1-395)
binding (3FLAG-RNF115): binds

dihydroorotate dehydrogenase (DHODH), endogenous (from UniProt Q02127 1-395)
binding [2]: binds
